PubChem BioAssay AID686943 | Drosophila RNAi Screening Center | 2013
The screen tested about 23,000 reagents; below is an unselected part of those that have a named target and a result. 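Extra replicates exist only for a retested subset of genes; insulin dose and duration not given; both raised and lowered dpERK matter.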 A plus sign joins genes that one reagent is predicted to hit. No sequences are given here. The record does not give: the amount of reagent, the time to read-out.

Screen: 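Fly genes whose loss alters ERK activation after insulin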 (primary screen)
Cells: Drosophila S2R+ haemocyte-like cells expressing YFP-tagged ERK (Rolled)
Knock-down reagent: long dsRNA against Drosophila genes
Challenge: insulin stimulation versus unstimulated cells; dose and duration not given
Measured: 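Per-plate z-scores of phospho-ERK immunostaining normalised to YFP-tagged ERK, measured with and without insulin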
Scale: replicate 1, z-score of dpERK with insulin and replicate 2, z-score of dpERK with insulin: higher = more active ERK per ERK-YFP after insulin; replicate 1, z-score of dpERK under basal conditions: higher = more basal active ERK per ERK-YFP; replicate 1, z-score of ERK-YFP with insulin: higher = more YFP-tagged ERK signal

The opening 7 records, to show the layout:
Gene | DRSC id | replicate 1, z-score of dpERK with insulin | replicate 2, z-score of dpERK with insulin | replicate 1, z-score of dpERK under basal conditions | replicate 1, z-score of ERK-YFP with insulin
MED20 | DRSC03463 | 0.46 | -0.13 | -0.73 | -0.84
Rbpn-5 | DRSC04440 | 0.84 | 0.16 | 1.24 | -0.29
CG42535 | DRSC09041 | 0.19 | 0.22 | -0.4 | -0.3
CG42662 + CG30080 | DRSC05571 | 1.91 | 1.09 | 1.23 | 0.49
clumsy | DRSC03111 | -0.1 | 0.06 | 0.9 | -0.3
CG18294 + 825-Oak + CG32214 + 2 more | DRSC22210 | -0.11 | 0.94 | -0.71 | -0.53
CG43260 (retired record) | DRSC19313 | 0.25 | 0.48 | 0.27 | -0.28

The list itself, from the start:
Gene | DRSC id | replicate 1, z-score of dpERK with insulin | replicate 2, z-score of dpERK with insulin | replicate 1, z-score of dpERK under basal conditions | replicate 1, z-score of ERK-YFP with insulin
MED20 | DRSC03463 | 0.46 | -0.13 | -0.73 | -0.84
Rbpn-5 | DRSC04440 | 0.84 | 0.16 | 1.24 | -0.29
CG42535 | DRSC09041 | 0.19 | 0.22 | -0.4 | -0.3
CG42662 + CG30080 | DRSC05571 | 1.91 | 1.09 | 1.23 | 0.49
clumsy | DRSC03111 | -0.1 | 0.06 | 0.9 | -0.3
CG18294 + 825-Oak + CG32214 + 2 more | DRSC22210 | -0.11 | 0.94 | -0.71 | -0.53
CG43260 (retired record) | DRSC19313 | 0.25 | 0.48 | 0.27 | -0.28
CG14610 + asRNA:CR42738 | DRSC12554 | -0.45 | 0.21 | -0.66 | 0.28
alpha4GT2 | DRSC13732 | -0.42 | 0.74 | -0.46 | 0.31
alpha4GT2 | DRSC15905 | -0.81 | -0.2 | -0.26 | 0.89
Mst36Fa | DRSC21564 | 0.68 | -0.09 | -0.42 | 0.16
CG17260 | DRSC00497 | -0.26 | 0.33 | -0.13 | 0.51
Acsx4 | DRSC14311 | 0.6 | 0.26 | -1.12 | 0.13
Dhod | DRSC16647 | 0.58 | -0.57 | 0.12 | -0.03
CG9346 | DRSC04542 | 0.53 | 0.73 | -0.64 | -4.15
Nubp1 | DRSC02639 | 0.52 | -0.1 | 0.51 | -0.7
flr | DRSC09787 | 0.19 | -0.46 | -1.09 | 0.25
CG9117 | DRSC03141 | 0.74 | 0.29 | 0.6 | -0.93
Art7 | DRSC04588 | -0.73 | -0.13 | 0.08 | 1
Obp99c | DRSC16262 | -0.44 | -0.17 | -0.13 | 0.32
CG7778 | DRSC03067 | -0.14 | 0.76 | -0.4 | -0.19
CG2747 | DRSC15450 | 0.26 | -0.16 | 0.57 | 0.16
sisA | DRSC20374 | -0.03 | 0.41 | 1.11 | -0.06
Klp59D | DRSC04118 | -0.53 | 0.11 | 0.45 | 0.1
CG33640 | DRSC01324 | -0.3 | 0.19 | -0.2 | 0.4
lncRNA:roX1 | DRSC21884 | 0.6 | 0.55 | -0.43 | -0.83
sunn | DRSC21659 | 0.04 | -0.56 | -0.45 | -0.41
CG33639 | DRSC19966 | 0.6 | 0.63 | 0.31 | 0.07
CG33639 | DRSC22820 | 1.62 | 1.36 | -1.66 | -0.23
js | DRSC15004 | -0.12 | -0.13 | 0.75 | 0.51
Cyp311a1 | DRSC20239 | 1.34 | 0.94 | 0.59 | 0.17
CG31677 | DRSC22023 | -0.45 | -0.3 | -0.54 | 0.5
CG13319 | DRSC06356 | -0.22 | -0.36 | -0.09 | 0.63
mTor | DRSC02811 | 2.75 | 1.69 | -2.45 | -0.73
CG5961 | DRSC15927 | 0.28 | 0.53 | -0.32 | 0.02
CG7290 | DRSC10800 | -0.73 | -0.36 | -0.11 | 0.29
CG9698 | DRSC16539 | -0.09 | 0.21 | 0.1 | -0.02
CG33919 | DRSC04940 | -0.97 | 0.03 | 1.4 | 1.38
ssh | DRSC16730 | 1.12 | 0.12 | -0.52 | 0.15
mlt (retired record) | DRSC06120 | -0.1 | 0.45 | 0.49 | -0.09
side | DRSC14523 | 3.18 | 1.13 | -0.62 | -1.35
side | DRSC14716 | 0.23 | -0.13 | 0.5 | 0.49
side | DRSC14717 | 0.12 | 0 | 0.46 | -0.45
side | DRSC14718 | 0.71 | 0 | -1.02 | -0.26
side | DRSC14721 | 0.57 | 0.16 | -0.39 | 0.12
CG15741 | DRSC19707 | 0.48 | 0.52 | -1.24 | 0.17
mRpL45 | DRSC16146 | 0.46 | -0.11 | 0.91 | 0.53
CG2611 | DRSC02710 | 0.45 | -0.79 | -0.64 | -0.58
CycC | DRSC16619 | 0.39 | 0.02 | 0.93 | 0.92
Obp56i | DRSC05812 | -0.5 | -0.14 | -0.8 | 0.1
CG33281 | DRSC00421 | -0.29 | 0.06 | -0.14 | -0.31
nebu | DRSC09807 | 2.22 | 1.66 | -0.59 | -3.27
nebu | DRSC09808 | 0.18 | 0.07 | 0.01 | -0.88
per | DRSC18818 | -0.37 | 0.06 | -0.18 | -0.06
aqz | DRSC16570 | 0.4 | 1.23 | 0.72 | -0.72
CG14286 | DRSC14767 | 0.27 | -0.84 | 0.93 | -0.09
kuz | DRSC03555 | -0.85 | -1.18 | -0.11 | 0.37
